Test results reported in publication PMC12574660.
No constants are given. Whether binding was seen depends on the method and setting. Binding seen in cells or lysates may run through a third protein. Some binding calls cover weakened binding; strength is not graded here.

Sequences of proteins named here, by UniProt entry; tags and fusion partners are left off.
UniProt E9PZQ0: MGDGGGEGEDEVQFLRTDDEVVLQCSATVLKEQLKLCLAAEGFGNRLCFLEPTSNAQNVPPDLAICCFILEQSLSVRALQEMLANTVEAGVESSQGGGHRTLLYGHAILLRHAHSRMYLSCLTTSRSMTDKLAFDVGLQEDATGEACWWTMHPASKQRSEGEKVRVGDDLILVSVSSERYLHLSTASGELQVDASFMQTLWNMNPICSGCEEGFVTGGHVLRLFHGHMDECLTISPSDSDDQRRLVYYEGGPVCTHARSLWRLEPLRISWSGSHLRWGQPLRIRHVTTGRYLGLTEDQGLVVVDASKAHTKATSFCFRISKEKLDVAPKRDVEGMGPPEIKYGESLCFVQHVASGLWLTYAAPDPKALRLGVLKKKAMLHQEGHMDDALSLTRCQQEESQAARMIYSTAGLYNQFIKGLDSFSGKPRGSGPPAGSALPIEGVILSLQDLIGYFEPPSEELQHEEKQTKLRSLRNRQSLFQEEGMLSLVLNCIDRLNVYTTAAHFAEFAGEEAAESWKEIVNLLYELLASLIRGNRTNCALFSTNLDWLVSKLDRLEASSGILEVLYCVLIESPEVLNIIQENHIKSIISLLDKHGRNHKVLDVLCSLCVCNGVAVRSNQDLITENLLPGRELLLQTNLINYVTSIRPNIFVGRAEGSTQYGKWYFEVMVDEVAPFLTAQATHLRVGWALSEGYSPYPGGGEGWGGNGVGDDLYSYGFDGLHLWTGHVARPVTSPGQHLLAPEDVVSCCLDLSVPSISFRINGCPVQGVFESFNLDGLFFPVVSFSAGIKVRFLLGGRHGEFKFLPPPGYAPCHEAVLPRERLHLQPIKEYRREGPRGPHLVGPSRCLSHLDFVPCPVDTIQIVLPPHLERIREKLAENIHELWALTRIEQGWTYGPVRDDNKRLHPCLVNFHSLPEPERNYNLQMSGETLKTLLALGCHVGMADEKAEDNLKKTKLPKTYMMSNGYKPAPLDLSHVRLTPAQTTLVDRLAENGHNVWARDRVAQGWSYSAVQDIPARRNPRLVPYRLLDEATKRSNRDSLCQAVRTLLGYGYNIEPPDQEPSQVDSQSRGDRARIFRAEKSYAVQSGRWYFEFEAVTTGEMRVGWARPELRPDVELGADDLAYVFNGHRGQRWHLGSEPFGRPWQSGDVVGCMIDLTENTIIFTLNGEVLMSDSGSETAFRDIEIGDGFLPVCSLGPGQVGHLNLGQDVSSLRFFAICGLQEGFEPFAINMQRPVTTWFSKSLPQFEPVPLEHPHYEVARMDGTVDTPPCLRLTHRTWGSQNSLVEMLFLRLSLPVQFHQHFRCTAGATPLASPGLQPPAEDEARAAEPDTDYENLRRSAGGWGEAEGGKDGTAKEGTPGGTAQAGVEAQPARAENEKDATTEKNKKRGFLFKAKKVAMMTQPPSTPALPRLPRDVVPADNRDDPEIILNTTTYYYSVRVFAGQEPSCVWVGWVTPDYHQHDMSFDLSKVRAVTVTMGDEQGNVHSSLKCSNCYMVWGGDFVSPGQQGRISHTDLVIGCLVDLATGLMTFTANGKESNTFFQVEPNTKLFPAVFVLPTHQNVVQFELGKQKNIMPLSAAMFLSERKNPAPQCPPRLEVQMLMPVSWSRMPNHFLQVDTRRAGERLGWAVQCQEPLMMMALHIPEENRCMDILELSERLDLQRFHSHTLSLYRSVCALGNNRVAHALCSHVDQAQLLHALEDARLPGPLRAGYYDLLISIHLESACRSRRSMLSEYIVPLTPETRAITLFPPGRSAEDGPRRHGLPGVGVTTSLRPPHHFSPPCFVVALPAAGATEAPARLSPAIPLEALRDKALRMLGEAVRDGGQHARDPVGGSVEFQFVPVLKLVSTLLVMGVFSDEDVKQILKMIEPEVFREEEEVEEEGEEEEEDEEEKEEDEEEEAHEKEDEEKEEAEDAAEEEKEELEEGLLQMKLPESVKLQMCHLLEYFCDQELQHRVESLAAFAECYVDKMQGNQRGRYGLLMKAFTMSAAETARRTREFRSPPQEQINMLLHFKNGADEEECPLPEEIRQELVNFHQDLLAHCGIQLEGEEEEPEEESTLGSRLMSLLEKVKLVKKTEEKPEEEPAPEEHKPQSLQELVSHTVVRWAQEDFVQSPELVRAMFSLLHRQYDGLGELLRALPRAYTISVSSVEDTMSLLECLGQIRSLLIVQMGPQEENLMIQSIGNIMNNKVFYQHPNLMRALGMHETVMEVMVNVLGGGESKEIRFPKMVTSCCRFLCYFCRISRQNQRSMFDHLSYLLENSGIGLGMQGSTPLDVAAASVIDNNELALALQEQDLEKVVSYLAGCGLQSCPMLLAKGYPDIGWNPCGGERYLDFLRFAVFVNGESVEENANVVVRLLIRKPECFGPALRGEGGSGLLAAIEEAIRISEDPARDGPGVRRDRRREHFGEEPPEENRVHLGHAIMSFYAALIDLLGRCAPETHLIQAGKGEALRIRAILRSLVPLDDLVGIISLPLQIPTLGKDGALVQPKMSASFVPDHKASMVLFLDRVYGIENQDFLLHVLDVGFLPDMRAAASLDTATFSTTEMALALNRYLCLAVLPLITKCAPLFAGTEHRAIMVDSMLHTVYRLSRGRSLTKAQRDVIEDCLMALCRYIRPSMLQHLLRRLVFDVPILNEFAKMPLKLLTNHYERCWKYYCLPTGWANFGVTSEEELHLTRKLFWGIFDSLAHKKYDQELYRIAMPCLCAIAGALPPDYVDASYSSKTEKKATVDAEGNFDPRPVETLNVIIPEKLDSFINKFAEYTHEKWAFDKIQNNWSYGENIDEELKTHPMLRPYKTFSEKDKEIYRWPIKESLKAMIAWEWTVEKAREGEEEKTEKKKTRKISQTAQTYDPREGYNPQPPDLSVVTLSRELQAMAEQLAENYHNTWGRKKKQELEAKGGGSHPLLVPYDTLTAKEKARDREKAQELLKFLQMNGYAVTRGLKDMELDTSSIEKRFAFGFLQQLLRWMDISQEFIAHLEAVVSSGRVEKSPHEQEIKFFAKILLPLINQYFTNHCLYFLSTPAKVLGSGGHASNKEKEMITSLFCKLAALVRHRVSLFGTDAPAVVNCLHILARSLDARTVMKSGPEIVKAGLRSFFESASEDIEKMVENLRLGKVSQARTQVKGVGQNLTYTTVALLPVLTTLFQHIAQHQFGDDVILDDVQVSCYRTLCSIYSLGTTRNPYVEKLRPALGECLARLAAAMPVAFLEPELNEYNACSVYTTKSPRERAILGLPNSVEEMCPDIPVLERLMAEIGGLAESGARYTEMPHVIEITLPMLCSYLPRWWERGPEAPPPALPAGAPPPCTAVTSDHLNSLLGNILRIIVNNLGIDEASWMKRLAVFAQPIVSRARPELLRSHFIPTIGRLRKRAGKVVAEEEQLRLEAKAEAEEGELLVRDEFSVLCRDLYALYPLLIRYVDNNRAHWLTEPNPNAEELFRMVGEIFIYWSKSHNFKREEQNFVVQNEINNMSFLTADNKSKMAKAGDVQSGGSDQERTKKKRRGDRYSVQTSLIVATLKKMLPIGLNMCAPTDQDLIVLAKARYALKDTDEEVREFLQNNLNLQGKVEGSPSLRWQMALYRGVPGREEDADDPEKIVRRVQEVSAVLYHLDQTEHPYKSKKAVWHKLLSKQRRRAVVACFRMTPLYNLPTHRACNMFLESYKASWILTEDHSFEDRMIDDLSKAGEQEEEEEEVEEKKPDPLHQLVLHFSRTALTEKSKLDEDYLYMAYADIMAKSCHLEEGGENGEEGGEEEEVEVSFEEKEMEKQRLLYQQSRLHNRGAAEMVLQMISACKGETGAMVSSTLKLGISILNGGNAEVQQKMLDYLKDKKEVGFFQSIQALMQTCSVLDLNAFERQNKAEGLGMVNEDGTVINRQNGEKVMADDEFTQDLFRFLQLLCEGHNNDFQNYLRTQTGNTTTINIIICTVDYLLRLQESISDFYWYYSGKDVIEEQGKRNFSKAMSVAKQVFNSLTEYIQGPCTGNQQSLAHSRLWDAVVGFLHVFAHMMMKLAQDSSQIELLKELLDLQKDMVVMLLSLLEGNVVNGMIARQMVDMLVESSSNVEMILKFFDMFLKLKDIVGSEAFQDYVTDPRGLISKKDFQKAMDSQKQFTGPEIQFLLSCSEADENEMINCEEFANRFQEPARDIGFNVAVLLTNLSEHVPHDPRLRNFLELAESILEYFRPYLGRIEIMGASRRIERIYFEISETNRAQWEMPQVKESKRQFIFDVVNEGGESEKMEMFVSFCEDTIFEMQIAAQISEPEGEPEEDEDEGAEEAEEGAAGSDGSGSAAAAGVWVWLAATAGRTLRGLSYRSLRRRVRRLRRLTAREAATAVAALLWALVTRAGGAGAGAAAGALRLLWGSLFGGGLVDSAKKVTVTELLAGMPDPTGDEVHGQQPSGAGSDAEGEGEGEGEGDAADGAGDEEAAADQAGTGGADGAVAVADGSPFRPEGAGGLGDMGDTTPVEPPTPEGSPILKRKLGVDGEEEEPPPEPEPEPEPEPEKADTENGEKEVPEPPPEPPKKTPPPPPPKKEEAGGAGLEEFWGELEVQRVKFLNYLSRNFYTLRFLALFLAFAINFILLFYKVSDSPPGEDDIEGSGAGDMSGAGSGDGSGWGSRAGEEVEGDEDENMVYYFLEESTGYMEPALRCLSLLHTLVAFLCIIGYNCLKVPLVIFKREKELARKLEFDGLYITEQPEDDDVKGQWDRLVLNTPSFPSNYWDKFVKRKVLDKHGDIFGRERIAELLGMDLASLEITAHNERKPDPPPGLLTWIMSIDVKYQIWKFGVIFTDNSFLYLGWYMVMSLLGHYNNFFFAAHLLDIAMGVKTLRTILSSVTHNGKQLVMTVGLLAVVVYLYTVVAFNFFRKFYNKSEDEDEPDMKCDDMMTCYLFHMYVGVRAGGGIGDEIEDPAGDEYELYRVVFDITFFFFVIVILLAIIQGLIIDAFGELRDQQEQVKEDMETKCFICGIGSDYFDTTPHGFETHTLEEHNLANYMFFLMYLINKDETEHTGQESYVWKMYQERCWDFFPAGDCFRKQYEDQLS
UniProt P26883: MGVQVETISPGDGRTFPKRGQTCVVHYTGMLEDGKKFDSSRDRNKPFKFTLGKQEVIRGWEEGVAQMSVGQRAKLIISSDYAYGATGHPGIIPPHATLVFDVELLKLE

Biological target: ryanodine receptor 1 (mouse (endogenous in gastrocnemius muscle)) (UniProt E9PZQ0)
Assay: co-IP; RyR1 immunoprecipitated with anti-RyR1 monoclonal antibody and Protein A/G-agarose from gastrocnemius muscle homogenate (50 mM Tris HCl pH 7.4, 0.15 M NaCl, 0.5% Triton X-100), 4°C; blot for calstabin 1; muscle of Nox4 f/f and Nox4 cKO mice, sham or 56 days after SCI

binding: binds
Substance: calstabin 1 (from UniProt P26883 1-108)
